No constants are given. Whether binding was seen depends on the method and setting. Binding seen in cells or lysates may run through a third protein. A yes stands for co-enrichment or nearness to the bait. Other partners may have been found.
Target: GFP-PmACRE1 (Avr9/Cf-9 rapidly elicited protein 1 of Pinus massoniana) (Pinus massoniana)
Experiment: affinity purification with mass spectrometry; leaf proteins of T3 homozygous PmACRE1-OX transgenic A. thaliana incubated with GFP-Trap agarose (ChromoTek); vector control line as control; SDS-PAGE, trypsin, LC-MS/MS (Orbitrap Fusion Lumos), Proteome Discoverer against UniProt

Chains of the proteins cited; added tags and fusions are not shown.
UniProt P56757: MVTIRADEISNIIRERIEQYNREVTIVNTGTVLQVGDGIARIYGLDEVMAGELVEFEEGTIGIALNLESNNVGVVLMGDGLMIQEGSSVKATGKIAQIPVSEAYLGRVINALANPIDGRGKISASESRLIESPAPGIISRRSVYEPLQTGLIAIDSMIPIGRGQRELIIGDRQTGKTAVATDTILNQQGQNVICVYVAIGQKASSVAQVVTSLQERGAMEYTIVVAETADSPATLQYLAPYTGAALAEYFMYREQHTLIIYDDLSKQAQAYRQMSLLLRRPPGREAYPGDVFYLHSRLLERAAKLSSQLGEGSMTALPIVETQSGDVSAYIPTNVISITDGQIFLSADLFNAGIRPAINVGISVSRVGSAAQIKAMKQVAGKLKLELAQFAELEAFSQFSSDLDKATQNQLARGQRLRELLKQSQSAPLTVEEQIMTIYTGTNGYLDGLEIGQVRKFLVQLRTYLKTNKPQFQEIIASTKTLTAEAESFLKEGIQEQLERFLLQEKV
UniProt P19366: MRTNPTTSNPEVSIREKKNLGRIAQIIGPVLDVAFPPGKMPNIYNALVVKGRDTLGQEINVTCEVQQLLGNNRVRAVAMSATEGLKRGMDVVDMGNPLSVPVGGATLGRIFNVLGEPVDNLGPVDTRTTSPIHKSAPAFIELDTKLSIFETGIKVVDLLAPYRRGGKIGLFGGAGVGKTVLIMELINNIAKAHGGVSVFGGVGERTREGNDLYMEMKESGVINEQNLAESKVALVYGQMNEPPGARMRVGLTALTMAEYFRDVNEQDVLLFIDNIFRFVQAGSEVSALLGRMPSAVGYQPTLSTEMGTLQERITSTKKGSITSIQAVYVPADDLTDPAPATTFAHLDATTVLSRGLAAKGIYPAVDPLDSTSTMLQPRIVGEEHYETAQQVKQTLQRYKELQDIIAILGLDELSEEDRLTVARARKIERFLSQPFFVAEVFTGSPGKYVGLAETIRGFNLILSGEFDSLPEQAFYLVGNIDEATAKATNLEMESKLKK
UniProt F4JTQ0: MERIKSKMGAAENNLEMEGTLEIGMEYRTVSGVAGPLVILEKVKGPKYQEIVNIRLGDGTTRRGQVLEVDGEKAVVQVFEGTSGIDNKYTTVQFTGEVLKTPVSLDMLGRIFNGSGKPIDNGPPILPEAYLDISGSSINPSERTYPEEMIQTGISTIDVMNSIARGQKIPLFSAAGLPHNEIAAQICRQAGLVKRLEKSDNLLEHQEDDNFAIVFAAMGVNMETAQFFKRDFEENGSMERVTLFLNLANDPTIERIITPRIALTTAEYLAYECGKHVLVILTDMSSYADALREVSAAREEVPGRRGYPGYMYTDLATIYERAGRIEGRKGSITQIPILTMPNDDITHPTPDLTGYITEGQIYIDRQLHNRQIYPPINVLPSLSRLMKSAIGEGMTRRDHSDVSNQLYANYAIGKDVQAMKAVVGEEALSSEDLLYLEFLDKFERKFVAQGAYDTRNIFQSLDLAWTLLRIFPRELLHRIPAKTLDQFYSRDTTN
UniProt Q8W4E2: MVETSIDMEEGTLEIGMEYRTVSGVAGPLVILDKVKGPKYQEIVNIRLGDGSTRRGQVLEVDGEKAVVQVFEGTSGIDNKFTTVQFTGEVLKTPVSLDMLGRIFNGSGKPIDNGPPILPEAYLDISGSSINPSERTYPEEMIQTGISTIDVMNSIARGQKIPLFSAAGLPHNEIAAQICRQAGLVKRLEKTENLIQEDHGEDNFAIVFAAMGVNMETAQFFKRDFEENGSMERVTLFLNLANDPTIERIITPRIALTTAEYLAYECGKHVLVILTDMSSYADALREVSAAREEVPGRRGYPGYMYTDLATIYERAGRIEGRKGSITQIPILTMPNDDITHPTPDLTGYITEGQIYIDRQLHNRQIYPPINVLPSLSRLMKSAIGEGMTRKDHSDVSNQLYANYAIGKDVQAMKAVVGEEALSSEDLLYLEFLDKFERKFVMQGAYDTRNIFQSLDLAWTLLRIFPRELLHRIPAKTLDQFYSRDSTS

binding | Substance
binds | ATP synthase subunit alpha, chloroplastic (from UniProt P56757 1-507)
binds | ATP synthase subunit beta, chloroplastic (from UniProt P19366 1-498)
binds | Vacuolar proton pump subunit B (from UniProt F4JTQ0 1-494)
binds | V-type proton ATPase subunit B3 (from UniProt Q8W4E2 1-487)
